The record followed here is patent US12168003B2, “Selective inhibition of T follicular helper cells for treatment of autoimmune disorders” (priority 2019, dated 2024).

This data set relates to CD4+ T cells. Nature of the data set: Polysome profiling and RNA sequencing of CD4+ T cells from OVA/Alum immunized mice. In kind it is in vivo, mouse.
The mark [1] stands for this setting: 25 mg/kg 4EGI-1, OVA/alum, CD4+ T cells.
The mark [2] stands for this setting: compared with TFH cell transcriptome of Johnston et al.

For the compound `O=C(O)C(Cc1ccccc1[N+](=O)[O-])=NNc1nc(-c2ccc(Cl)c(Cl)c2)cs1` (mixture of isomers) [4EGI-1], the “share of mRNAs changed in abundance or translation in CD4+ T cells” value (25 mg/kg 4EGI-1, OVA/alum) is given as approximately 4%. Further, under setting [1], the “mRNAs altered in both transcription and translation” value was found to be 64 mRNAs; the “mRNAs altered in translation alone without a change in abundance” value worked out at 667 mRNAs; the “mRNAs significantly altered in abundance and not translation activity (transcription alone)” value is listed as 641 mRNAs; the “share of changed mRNAs reduced in abundance” value came to 61%. Moreover, the “share of changed mRNAs reduced in translation” value under setting [1] was found to be 79%. Under setting [2], the “TFH-enriched mRNAs (both datasets) downregulated by 4EGI-1, regulated in transcription alone” value is recorded as 18 mRNAs and the “TFH-enriched mRNAs downregulated by translation alone with eIF4E inhibition” value was 40 mRNAs.
